PubChem BioAssay AID504764, Drosophila RNAi Screening Center – 2011

- Test: 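Knock-downs that raise or lower a Notch target reporter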 (primary screen)
- Cell system: Drosophila Kc167 cells
- Reagent: long dsRNA against Drosophila genes
- Timing: about 5 days (4 days dsRNA, then 24 h after transfection)
- Treatment: transfection of constitutively active membrane-tethered Notch lacking the extracellular domain, read 24 h later
- Detection: 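Firefly luciferase from an E(spl)m3 reporter with active Notch, plus control-promoter and uninduced reporter wells for normalisation; unnormalised counts, duplicate wells a and b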
- Reading the numbers: induced reporter light, run 1, well a and induced reporter light, run 1, well b: higher = more light from the Notch target reporter with active Notch; control promoter light, run 1, well a and control promoter light, run 1, well b: higher = more light from the viral control promoter (cell number, transfection, viability); uninduced reporter light, run 1, well a: higher = more light from the Notch target reporter without active Notch
- Call rule: 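Wells with low control signal or poorly matching duplicates excluded; duplicates averaged; per source plate, z beyond ±2 for induced/control log2 ratio or beyond ±1.8 for induced/uninduced marks a hit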
- Calls: active = modifier hit (raised or lowered Notch signal); inactive = not a hit
The deposit covers about 22,000 reagents; below is an unselected part of those with a known target gene and a result. Of all reagents, 403 (1.9%) got an active call. 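Unnormalised raw counts per well; ratio z-scores behind the hit calls and whether each hit raises or lowers signal are not deposited.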 Unmarked entries are inactive. Names joined by + are all predicted targets of the reagent. Reagent sequences are not shown. Not given: the amount of reagent.

| target gene | amplicon | induced reporter light, run 1, well a | induced reporter light, run 1, well b | control promoter light, run 1, well a | control promoter light, run 1, well b | uninduced reporter light, run 1, well a |
| --- | --- | --- | --- | --- | --- | --- |
| Zfrp8 (Zinc finger protein RP-8) | DRSC04352 | 2.03e5 | 1.99e5 | 1.57e5 | 1.79e5 | 14260 |
| CG5493 + CG5327 | DRSC06938 | 1.12e5 | 99040 | 1.48e5 | 99025 | 9360 |
| ste24c + CG30461 | DRSC05639 | 89430 | 66840 | 88140 | 81115 | 7505 |
| ste24c + CG30461 | DRSC07316 | 1.63e5 | 99880 | 1.08e5 | 1.12e5 | 8530 |
| Spp (Signal peptide peptidase) | DRSC00328 | 1.92e5 | 2.42e5 | 2.00e5 | 2.05e5 | 18675 |
| eve (even skipped) | DRSC07614 | 1.69e5 | 1.84e5 | 2.26e5 | 2.34e5 | 18410 |
| vvl (ventral veins lacking) | DRSC11409 | 2.09e5 | 2.00e5 | 3.31e5 | 2.90e5 | 15550 |
| Zip88E (Zinc/iron regulated transporter-related protein 88E) | DRSC15562 | 2.77e5 | 2.61e5 | 2.32e5 | 2.23e5 | 17015 |
| CAHbeta (Carbonic anhydrase beta) | DRSC14449 | 1.24e5 | 1.22e5 | 95985 | 74665 | 10145 |
| CG33308 | DRSC01419 | 86245 | 91280 | 97630 | 86945 | 7132 |
| CG32638 | DRSC18968 | 84130 | 62780 | 67090 | 63810 | 5485 |
| CG15773 | DRSC18079 | 1.34e5 | 1.33e5 | 2.31e5 | 2.59e5 | 10225 |
| Hcf (Host cell factor) | DRSC17143 | 67015 (active) | 72400 | 1.66e5 | 1.64e5 | 6260 |
| Acp26Aa (Accessory gland protein 26Aa) | DRSC01855 | 1.73e5 | 1.37e5 | 1.75e5 | 1.52e5 | 10595 |
| CG9593 | DRSC16508 | 2.33e5 | 2.34e5 | 2.22e5 | 2.34e5 | 17230 |

6 neighbouring records already listed, quoted:
| target gene | amplicon | induced reporter light, run 1, well a | induced reporter light, run 1, well b | control promoter light, run 1, well a | control promoter light, run 1, well b | uninduced reporter light, run 1, well a |
| --- | --- | --- | --- | --- | --- | --- |
| CG33308 | DRSC01419 | 86245 | 91280 | 97630 | 86945 | 7132 |
| CG32638 | DRSC18968 | 84130 | 62780 | 67090 | 63810 | 5485 |
| CG15773 | DRSC18079 | 1.34e5 | 1.33e5 | 2.31e5 | 2.59e5 | 10225 |
| Hcf (Host cell factor) | DRSC17143 | 67015 (active) | 72400 | 1.66e5 | 1.64e5 | 6260 |
| Acp26Aa (Accessory gland protein 26Aa) | DRSC01855 | 1.73e5 | 1.37e5 | 1.75e5 | 1.52e5 | 10595 |
| CG9593 | DRSC16508 | 2.33e5 | 2.34e5 | 2.22e5 | 2.34e5 | 17230 |

The listing continues.
| target gene | amplicon | induced reporter light, run 1, well a | induced reporter light, run 1, well b | control promoter light, run 1, well a | control promoter light, run 1, well b | uninduced reporter light, run 1, well a |
| --- | --- | --- | --- | --- | --- | --- |
| MICAL-like | DRSC09829 | 1.35e5 | 1.38e5 | 85175 | 78260 | 13415 |
| ProtA (Protamine A) | DRSC03372 | 1.32e5 | 1.73e5 | 1.52e5 | 1.70e5 | 12635 |
| CG7739 | DRSC10910 | 1.96e5 | 2.10e5 | 2.50e5 | 2.21e5 | 8385 |
| RpS6 (Ribosomal protein S6) | DRSC18712 | 4830 | 4500 | 6875 | 8275 | 340 |
| ND-SGDH (NADH dehydrogenase (ubiquinone) SGDH subunit) | DRSC11102 | 34365 | 38860 | 41670 | 31765 | 2865 |
| CG34045 | DRSC05787 | 1.32e5 | 99525 | 1.87e5 | 1.58e5 | 8740 |
| CG7084 | DRSC16194 | 1.50e5 | 1.52e5 | 2.11e5 | 1.78e5 | 16400 |
| CG9147 | DRSC03147 | 1.79e5 | 1.75e5 | 1.88e5 | 1.84e5 | 8482 |
| Or85c (Odorant receptor 85c) | DRSC16766 | 1.09e5 | 1.38e5 | 1.38e5 | 1.03e5 | 7180 |
| 14-3-3zeta | DRSC05028 | 94360 | 92765 | 92915 | 89685 | 7400 |
| Liprin-alpha | DRSC02132 | 1.72e5 | 1.43e5 | 1.79e5 | 1.78e5 | 16050 |
| CG10654 | DRSC09767 | 1.50e5 | 1.56e5 | 2.46e5 | 1.78e5 | 8515 |
| Trf4-1 (Topoisomerase related function 4-1) | DRSC17775 | 1.49e5 | 1.45e5 | 2.56e5 | 2.63e5 | 11405 |
| CG6978 | DRSC18409 | 83835 | 86470 | 1.39e5 | 1.06e5 | 6445 |
| Dyb (Dystrobrevin) | DRSC07208 | 1.91e5 | 2.15e5 | 1.90e5 | 2.08e5 | 15600 |
| CG4678 | DRSC19911 | 73865 | 59615 | 1.03e5 | 64525 | 9570 |
| CG4678 | DRSC19912 | 85235 | 61045 | 62525 | 47945 | 9310 |
| CG2061 | DRSC19348 | 2.11e5 | 1.88e5 | 2.43e5 | 2.39e5 | 15785 |
| edl (ETS-domain lacking) | DRSC06516 | 64935 | 75115 | 1.50e5 | 1.84e5 | 6390 |
